Laboratory results reported in US20080152632A1, “Promoter-reporter cells for determining drug metabolism, drug interactions, and the effects of allotype variation” (Roslin Institute, priority 2005, published 2008).
The name of at least one read-out is uncertain.

System: hepatocyte lineage cells (HLCs)
Experiment: Indocyanine green uptake and clearance by hepatocyte lineage cells
Type: cell-based, human
Conditions: 1 mg/mL ICG for 45 min, then clearance monitored hourly

Structure (SMILES): CC1(C)C(/C=C/C=C/C=C/C=C2\N(CCCCS(=O)(=O)O)c3ccc4ccccc4c3C2(C)C)=[N+](CCCCS(=O)(=O)[O-])c2ccc3ccccc3c21 [indocyanine green]
- Uptake and clearance of ICG by cells: took up and cleared
